The nature of this series: general procedure: solution-phase peptide synthesis; HBTU; PyBOP/HOBT; DEPBT/HOBT.
The mark [1] stands for this setting: coupling step, calculated from HPLC analysis.

Square brackets hold non-standard residues; d marks the D form. Ends that are not written are not given here. * marks the point of attachment. Mtr = COc1cc(C)c(S(=O)(=O)*)c(C)c1C; Boc = CC(C)(C)OC(=O)*

Boc-[dL]LR(Mtr)P-NHEt showed a step yield (coupling step, based on HPLC analysis) of 60%.

With “Pyr-His-Trp-Ser-Tyr-D-Leu-Leu-Arg-Pro-NHEt”, where the note is “late stage modification step, calculated from HPLC analysis”, the step yield is given as 59%.

Consider [dL]LR(Mtr)P-NHEt, for which the step yield (late stage modification step, based on HPLC) came out at 80%.

The substance “Pyr-His(Trt)-Trp(boc)-Ser(tBu)-Tyr(tBu)-OH” yielded a step yield (late stage modification step) of 94%.

With “Pyr-His(Trt)-Trp(boc)-Ser(tBu)-Tyr(tBu)-OAllyl”, under setting [1], the step yield is recorded as 78%.

Turning to “Pyr-His(Trt)-Trp(boc)-Ser(tBu)-Tyr(tBu)-D-Leu-Leu-Arg(Mtr)-Pro-NHEt”, the step yield under setting [1] is listed as 68%.

The values are drawn from patent US8013117 (dated 2011).
